Assay results from paper PMC4513098, “Ordered Regions of Channel Nucleoporins Nup62, Nup54, and Nup58 Form Dynamic Complexes in Solution*” (The Journal of Biological Chemistry, 2015).

Target: His6-tagged Nup58, C-terminal segment of the ordered region (cognate for Nup54) (Rattus norvegicus)
Experiment: pull-down; deletion constructs of the three channel nups co-expressed; complexes purified by affinity pulldown via the His6 tag of Nup58; eluates analysed by SDS-PAGE

- binding: binds
B1: Nup54(346–510), entire ordered region of Nup54 from Rattus norvegicus (domain or fragment, UniProt P70582 346-510)
chain: MTKQHQTRLDIISEDISELQKNQTTTMAKIAQYKRKLMDLSHRTLQVLIKQEIQRKSGYAIQAEEEQLRVQLDTIQGELNAPTQFKGRLNELMSQIRMQNHFGAVKSEEKYYIDADLLREIKQHLKQQQEGLSHLISIIKDDLEDIKLVEHGLNETIHSRGGVFS

Results are given in words; binding and its absence hold for the method and conditions named. Binding seen in cells or lysates may run through a third protein. Binding can be weak; no strength is given.
